The text below walks through data of article PMC12431657, “Discovery and mechanistic insights of dibenzoylmethane as a broad spectrum inhibitor of coronavirus” (PLOS Pathogens, 2025).

The structures appear in SMILES notation. About 95 (3%) of roughly 3,300 compounds showed an effect of 50% or more. This is one part of the list.

For the assay, the system named is HCoV-229E. Details: species or system Huh-7; HTS, protection from HCoV-229E induced cell death, luminescent cell viability (CellCounting-Lite 2.0), inhibition rate. Particulars: 24 h post infection, 1 h compound pre-incubation; 10 µM; inhibitor.
As for `C[C@@H]1CC[C@]2(C(=O)O[C@@H]3O[C@H](CO)[C@@H](O)[C@H](O)[C@H]3O)CC[C@]3(C)C(=CC[C@@H]4[C@@]5(C)CC[C@H](O)[C@](C)(C(=O)O)[C@@H]5CC[C@]43C)[C@@H]2[C@]1(C)O` [Ilexsaponin A], the “229E Inhibition rate” value came to 58.5%.
As to `CC(=O)CC(=O)CCC(=O)O` [4,6-Dioxoheptanoic acid], the “229E Inhibition rate” value was determined as 4.2%.
Regarding `Oc1cc(O)c2cc(O)c(-c3cc(O)c(O)c(O)c3)[o+]c2c1` [Delphinidin (chloride)], the “229E Inhibition rate” value was found to be 13.7%.
With `C[C@H]1[C@H](C)CC[C@]2(C(=O)O)CC[C@]3(C)C(=CC[C@@H]4[C@@]5(C)CCC(=O)C(C)(C)[C@@H]5CC[C@]43C)[C@H]12` [Ursonic acid], the “229E Inhibition rate” value is recorded as 4.7%.
In the case of `CCOC(=O)CC(C)O` (centres unmarked) [Ethyl 3-hydroxybutyrate], the “229E Inhibition rate” value is reported as 11.8%.
For the compound `CC(=O)[C@@]1(O)CC[C@H]2[C@@H]3CC=C4CC(O)CC[C@]4(C)[C@H]3CC[C@@]21C` (some centres unmarked) [17a-Hydroxypregnenolone], the “229E Inhibition rate” value stood at 5.8%.
With `O=C(O)c1ccc2c(c1)C(=O)c1ccccc1C2=O` [Anthraquinone-2-carboxylic acid], the “229E Inhibition rate” value is recorded as 32.8%.
Next, `CC(=O)O[C@@H]1C[C@@]23C[C@@]24CC[C@H](O[C@@H]2OC[C@@H](O)[C@H](O)[C@H]2O)C(C)(C)[C@@H]4CC[C@H]3[C@]2(C)C[C@@H]3O[C@]4(C[C@@H](C)[C@@H]3[C@@]12C)OC[C@@]1(C)O[C@@H]41` [26-Deoxyactein]: 30.8%.
On to `O=C(O)CCc1ccc(O)cc1O` [3-(2,4-Dihydroxyphenyl)propanoic acid], for which the “229E Inhibition rate” value came out at 0%.
To `C/C=C(/C)C(=O)O[C@@H]1[C@H](OC(=O)CC(C)C)c2c(ccc3ccc(=O)oc23)OC1(C)C` [Praeruptorin C] belongs 32.9%; to `COc1ccc(-c2coc3cc(O)c(OC)c(O)c3c2=O)cc1` [Irisolidone], 0%.
Consider `CC(=O)O[C@@H]1CC[C@@]2(C)[C@@H](CC[C@]3(C)[C@@H]2[C@H](O)C=C2[C@@H]4[C@@H](C)[C@H](C)CC[C@]4(C)CC[C@]23C)[C@@]1(C)C(=O)O` [3-O-Acetyl-11-hydroxy-beta-boswellic acid], for which the “229E Inhibition rate” value is listed as 0%.
`C[C@@H]1O[C@@H](O[C@H]2[C@H](Oc3cc(O)c4c(=O)cc(-c5ccc(O)cc5)oc4c3)O[C@H](CO[C@@H]3O[C@H](CO)[C@@H](O)[C@H](O)[C@H]3O)[C@@H](O)[C@@H]2O)[C@H](O)[C@H](O)[C@H]1O` [Apigenin-7-O-(2G-rhamnosyl)gentiobioside]: the “229E Inhibition rate” value stood at 22.2%.
As for `COc1cc(O)c(CC=C(C)C)c2c1C(=O)CC(c1ccc(O)cc1)O2` (centres unmarked) [Isoxanthohumol], the “229E Inhibition rate” value was found to be 23.6%.
